Percent effect of library compounds

Protein sequences, listed by entry. Tags and fused reporters are not part of them. Residues count along the entry.
UniProt I6X8D2, whole entry: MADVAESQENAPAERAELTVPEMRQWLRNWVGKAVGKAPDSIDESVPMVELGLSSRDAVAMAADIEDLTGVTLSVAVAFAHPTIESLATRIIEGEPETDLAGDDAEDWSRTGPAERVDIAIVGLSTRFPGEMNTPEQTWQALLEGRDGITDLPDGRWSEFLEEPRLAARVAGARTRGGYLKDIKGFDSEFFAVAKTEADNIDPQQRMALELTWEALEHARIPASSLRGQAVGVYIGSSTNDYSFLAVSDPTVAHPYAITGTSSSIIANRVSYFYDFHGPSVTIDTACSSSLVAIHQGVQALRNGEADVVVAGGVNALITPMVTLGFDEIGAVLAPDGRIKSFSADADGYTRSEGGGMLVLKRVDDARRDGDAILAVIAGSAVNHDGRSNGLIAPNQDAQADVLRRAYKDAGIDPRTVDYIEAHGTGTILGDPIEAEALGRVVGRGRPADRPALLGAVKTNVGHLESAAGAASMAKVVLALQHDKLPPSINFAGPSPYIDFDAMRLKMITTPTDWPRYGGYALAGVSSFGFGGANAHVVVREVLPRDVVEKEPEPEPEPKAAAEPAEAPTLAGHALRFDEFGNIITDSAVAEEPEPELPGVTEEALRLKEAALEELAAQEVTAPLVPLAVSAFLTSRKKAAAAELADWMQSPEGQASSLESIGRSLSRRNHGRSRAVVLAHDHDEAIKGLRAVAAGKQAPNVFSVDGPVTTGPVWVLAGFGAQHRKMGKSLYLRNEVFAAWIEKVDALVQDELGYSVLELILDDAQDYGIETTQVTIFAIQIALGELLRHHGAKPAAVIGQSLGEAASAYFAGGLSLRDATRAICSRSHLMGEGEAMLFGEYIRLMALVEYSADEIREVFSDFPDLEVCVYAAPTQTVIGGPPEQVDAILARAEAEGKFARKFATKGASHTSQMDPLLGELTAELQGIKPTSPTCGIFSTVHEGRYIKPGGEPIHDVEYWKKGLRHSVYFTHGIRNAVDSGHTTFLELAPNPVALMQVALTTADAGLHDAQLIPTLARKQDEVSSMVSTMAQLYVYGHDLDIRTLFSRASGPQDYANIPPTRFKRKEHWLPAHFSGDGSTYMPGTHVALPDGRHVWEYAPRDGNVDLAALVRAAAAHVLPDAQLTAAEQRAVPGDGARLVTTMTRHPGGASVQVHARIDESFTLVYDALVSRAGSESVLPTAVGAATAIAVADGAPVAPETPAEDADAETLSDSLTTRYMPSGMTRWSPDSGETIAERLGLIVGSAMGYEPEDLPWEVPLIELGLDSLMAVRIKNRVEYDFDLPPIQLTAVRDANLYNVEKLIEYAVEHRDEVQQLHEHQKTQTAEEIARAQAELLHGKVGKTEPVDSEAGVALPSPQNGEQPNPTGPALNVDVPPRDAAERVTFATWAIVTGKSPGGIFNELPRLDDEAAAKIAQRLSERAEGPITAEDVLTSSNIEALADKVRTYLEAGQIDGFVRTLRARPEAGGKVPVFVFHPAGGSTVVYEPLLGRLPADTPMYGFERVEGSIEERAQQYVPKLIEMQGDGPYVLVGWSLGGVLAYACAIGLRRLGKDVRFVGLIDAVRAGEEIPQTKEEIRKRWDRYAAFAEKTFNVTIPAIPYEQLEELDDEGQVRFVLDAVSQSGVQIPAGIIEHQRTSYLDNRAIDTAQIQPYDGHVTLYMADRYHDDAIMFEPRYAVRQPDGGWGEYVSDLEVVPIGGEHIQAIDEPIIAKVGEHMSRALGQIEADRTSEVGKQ
UniProt Q8IDJ8, 1-583: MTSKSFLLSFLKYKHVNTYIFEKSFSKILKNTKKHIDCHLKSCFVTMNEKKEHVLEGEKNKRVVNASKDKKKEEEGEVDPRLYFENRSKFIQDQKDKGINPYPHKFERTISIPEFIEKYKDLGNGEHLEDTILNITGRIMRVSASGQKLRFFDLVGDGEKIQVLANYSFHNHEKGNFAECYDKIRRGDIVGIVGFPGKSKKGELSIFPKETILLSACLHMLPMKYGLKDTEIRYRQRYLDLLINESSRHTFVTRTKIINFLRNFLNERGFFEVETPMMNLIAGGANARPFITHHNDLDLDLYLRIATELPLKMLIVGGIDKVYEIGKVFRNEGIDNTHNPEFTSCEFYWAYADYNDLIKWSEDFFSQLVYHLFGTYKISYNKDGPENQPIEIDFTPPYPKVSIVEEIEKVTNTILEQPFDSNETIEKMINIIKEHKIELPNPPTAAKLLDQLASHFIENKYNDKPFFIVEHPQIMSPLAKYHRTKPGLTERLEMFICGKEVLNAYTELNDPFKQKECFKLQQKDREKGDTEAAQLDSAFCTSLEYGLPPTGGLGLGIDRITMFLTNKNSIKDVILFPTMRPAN
UniProt P9WNZ1, whole entry: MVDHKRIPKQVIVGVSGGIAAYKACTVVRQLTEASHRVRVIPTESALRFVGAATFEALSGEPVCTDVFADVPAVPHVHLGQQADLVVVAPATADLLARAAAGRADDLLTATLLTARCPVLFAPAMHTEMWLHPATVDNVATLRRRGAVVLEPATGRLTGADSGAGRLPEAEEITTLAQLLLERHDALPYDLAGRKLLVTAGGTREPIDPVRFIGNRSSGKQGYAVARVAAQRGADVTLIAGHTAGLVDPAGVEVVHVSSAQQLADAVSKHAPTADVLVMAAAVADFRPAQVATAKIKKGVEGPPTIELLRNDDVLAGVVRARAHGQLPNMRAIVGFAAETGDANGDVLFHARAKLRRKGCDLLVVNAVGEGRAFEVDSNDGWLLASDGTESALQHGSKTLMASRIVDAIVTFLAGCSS

Data taken from ChEMBL document CHEMBL3988442, “University of Dundee, Small-Polar-MMV Screening Library” (2021).

A: 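Assay of Toxoplasma gondii numbers, read through their beta-galactosidase reporter with a colour substrate. Concentration: 10 µM. The record gives no direction; the compounds picked for IC50 retests had high values, so higher reads as fewer parasites. About 67,000 compounds were tested under these conditions; 0.38% (about 260) showed 50% or more at least once.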
B: 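Enzyme assay of the thioesterase domain of polyketide synthase 13; the read-out is not stated. Target: Polyketide synthase Pks13, Mycobacterium tuberculosis (UniProt I6X8D2). Compounds at 30 µM. The record gives no direction; the compounds picked for IC50 retests had high values, so higher reads as stronger inhibition. Of about 67,000 compounds tested this way, about 300 (0.46%) reached 50% or more in at least one test.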
C: 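Lysine-tRNA ligase, Plasmodium falciparum 3D7 (UniProt Q8IDJ8). Enzyme assay of the cytosolic lysyl-tRNA synthetase in 384-well plates, read by luminescence. Compounds at 30 µM. Higher reads as stronger inhibition, judged from the few compounds that gave an IC50. Size under these conditions: about 69,000 compounds, about 49 of them at 50% or above in at least one test.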
D: 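Coenzyme A biosynthesis protein CoaBC, Mycobacterium tuberculosis (UniProt P9WNZ1). Enzyme assay of CoaBC with a phosphate dye (Biomol Green) read at 650 nm. Tested at 30 µM. Higher reads as stronger inhibition, judged from the few compounds that gave an IC50. Most strong results did not repeat in a second test. Of about 67,000 compounds tested this way, about 40 (0.06%) reached 50% or more in at least one test.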

Values are the deposited “Percent Effect”, in %. How 0% and 100% were set is not recorded. Most values in the screen are low, and negative values occur. The compounds are a random part of those screened. Two or more numbers in one place are separate tests of the same structure; such repeats can differ widely.

CSc1sc2c(O)cc(=O)[nH]c2c1C(N)=O read A: -9.831%; B: -2.747%; C: 8.663%; D: 4.937%.
CC(C)C(=O)N1CCC(C)(c2cc[nH]n2)CC1 read A: 25.9%; B: 4.903%; C: 1.587%; D: -11.19%.
CN1CCC2(COCc3cnc(N4CCOCC4)nc32)C1.O=C(O)C(F)(F)F (centres unmarked) read A: 4.304%.
COCC1CC2(CCNCC2)CN1Cc1csc(C)n1 (centres unmarked) read B: -45.02%; C: 1.658%; D: -34.17%.
Cc1ncc(CN2CCOC(c3ccc(-c4cc[nH]n4)cn3)C2)s1 (centres unmarked) read A: -16.2%; B: -0.2789%; C: 1.098%; D: 9.732%.
COC(=O)NCC(=O)NC(c1ccc(Cl)cc1)C(F)(F)F (centres unmarked) read A: -0.531%; B: -34.57%; C: 2.116%; D: 6.159%.
COCCN1CC[C@H]2CN(c3cc(OC)ncn3)C[C@@H]2C1=O read B: 25.22%; C: -7.563%.
O=C1CCC(=O)N1CCn1nnc(-c2ccc(Br)cc2)n1 read A: -5.622%; B: -24.26%; C: -0.6262%; D: 2.675%.
OCCCN1CCOC(c2ccc(F)cc2)C1 (centres unmarked) read A: 11.77%; B: -8.537%; C: 1.51%; D: 0.4819%.
CC(CCCC(C)(C)O)Nc1ccc(-c2nccn2C)nn1 (centres unmarked) read A: 0.9735%; B: 15.31%; C: -1.577%; D: -1.707%.
CCOC1COC2(CCN(Cc3cccnc3OC)CC2)C1 (centres unmarked) read B: 2.559%; C: 3.849%; D: 1.22%.
CCCc1ccc(C(=O)N2CCc3c(nc(N(C)C)[nH]c3=O)C2)cc1 read A: -3.805%; B: -24.1%; C: 6.199%; D: 2.213%.
COc1ccc(OC2CCN(C(=O)C3CCCN(C)C3)CC2)cc1 (centres unmarked) read A: 5.179%; B: 3.659%; C: 2.579%; D: -0.3659%.
CNC(=O)CCc1cccc(C2CCCN(c3cc(C)ncn3)C2)n1 (centres unmarked) read A: -5.589%; B: -9.417%; C: -0.1689%; D: 34.02% & 11.86%.
[H][C@]12CC[C@@]3(N=C(c4ccccc4)NC3=O)[C@@]1([H])CN(C(=O)c1ccoc1)C2 read A: 0.7324%.
FC(F)(F)c1ccccc1CN1CCOC[C@H](Oc2cccnc2)C1 read A: 17.36%; B: -24.86%; C: 3.026%; D: 8.168%.
[H][C@@]12CN(C(=O)c3cccnc3)C[C@]1([H])[C@@H]2CC(=O)Nc1cccnc1 read A: 15.37%.
O=C(O)C(F)(F)F.[H][C@@]12CCN(CCc3ccccc3)C[C@]1([H])O[C@@H](C(=O)NC)C2 read A: 1.973%.
CCS(=O)(=O)NCCNC(=O)N(Cc1ccc(C)o1)C(C)C read A: 6.165%; B: -6.188%; C: 2.311%; D: 6.098%.
Cn1ccc(CS(=O)(=O)Cc2ccccc2)cc1=O read A: -1.447%; B: -3.264%; C: 5.639%; D: 8.333%.
CCCN1CCC(CC(=O)N(C)C(C)c2cncs2)CC1 (centres unmarked) read A: 5.324%; B: -16.38%; C: -0.4316%; D: 4.464%.
COc1ccc(OC)c(CCC(=O)Nc2cc(C)n[nH]2)c1 read A: 7.85%; B: -26.61%; C: 0.7385%; D: 6.601%.
COc1cccc2c1ccn2CC(=O)N[C@@H](CCSC)C(=O)O read A: 5.14%; B: -5.176%; C: 3.58%; D: 4.441%.
Cc1ccnc(NCCNC(=O)C2CC3(CCNCC3)CN2C)c1 (centres unmarked) read A: 1.042%; B: -17.47%; C: 24.16%; D: -30.45%.

Repeated from the top, 2 entries:

* CSc1sc2c(O)cc(=O)[nH]c2c1C(N)=O : A: -9.831%; B: -2.747%; C: 8.663%; D: 4.937%
* CC(C)C(=O)N1CCC(C)(c2cc[nH]n2)CC1 : A: 25.9%; B: 4.903%; C: 1.587%; D: -11.19%